Measured values taken from paper doi:10.1101/2020.06.30.176701 (bioRxiv, 2020).
No constants are given. Whether binding was seen depends on the method and setting. Some entries that bind do so weakly or less than the wild type.

Biological target: T1, archaeal ribosomal P-stalk complex aP0•(aP1•aP1)3 (Pyrococcus horikoshii) (UniProt O74109+O57705)
T1 sequence 1: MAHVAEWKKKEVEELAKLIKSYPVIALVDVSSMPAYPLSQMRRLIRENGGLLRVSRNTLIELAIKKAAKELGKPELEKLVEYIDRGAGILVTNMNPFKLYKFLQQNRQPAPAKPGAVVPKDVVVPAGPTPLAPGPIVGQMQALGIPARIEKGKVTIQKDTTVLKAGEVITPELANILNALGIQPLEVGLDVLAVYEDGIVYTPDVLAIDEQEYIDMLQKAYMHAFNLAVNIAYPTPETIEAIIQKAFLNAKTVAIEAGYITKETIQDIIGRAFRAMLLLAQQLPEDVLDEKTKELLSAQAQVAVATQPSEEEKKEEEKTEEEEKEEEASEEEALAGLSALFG
T1 sequence 2: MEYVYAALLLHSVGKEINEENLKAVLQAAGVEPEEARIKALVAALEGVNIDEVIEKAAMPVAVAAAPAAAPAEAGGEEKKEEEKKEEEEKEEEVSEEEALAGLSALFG
Assay: native gel or EMSA

- binding: binds
B1: archaeal elongation factor 2 (aEF2) of Pyrococcus furiosus (natural protein, UniProt P61877 1-732, looked up)
chain: MGRREEMIAKIKELMLQPERIRNIGIAAHIDHGKTTLSDNLLAGAGMISEELAGKQLVLDFDEQEQARGITINAANVSMVHNYEGKDYLINLIDTPGHVDFGGDVTRAMRAIDGVIIVVDAVEGVMPQTETVVRQALREYVKPVLFINKVDRLIRELKLTPQQMMERFSKIIMDVNRLIQRYAPEEYKKKWMVRVEDGSVAFGSAYYNWALSVPFMQRTGVKFNEIIDLTLKGDNKTLRQRAPLHVVVLDMVVRHLPSPIEAQKYRIPHLWQGDINSKIGQAMLNCDPKGKMVMVITKIIIDKHAGEVATGRVWSGTVRSGQEVYLINSKRKGRIQQVGIYMGPERINMEAVPAGNIVAVTGLRDAMAGETVAEEQIEPFEALHYVSEPVVTVAIEAKNVKDLPRLIEALRQLAKEDPTLHVKIDEETGQHLLSGMGELHLEVKLYKLQKDWGIEVDVSEPIVVYRESITKPSPIVEGKSPNKHNRFYVVVEPMPDEIYQAIKEGIIPEGRVKDPKAVAKKLAELGMDYDIARGVVDIYNGNMFLDNTKGIQYLNEVMDLLIDGFHQAMDEGPLAKEPVMKVIVRLVDAQVHEDNVHRGPAQIYPAIRTAIHCAMMKAGPVLYEPYQKVIINIPYEYMGAVSREISQRRGQLIDMRQEGEVMTIIAEAPVAEMFGFAGAIRSATSGRALWSTEHAGFKRVPNELAQQIIRQIRQRKGLDPNPPTEKDVCPLF
